Laboratory results as given in publication PMC11117661, “Development of a Novel In Silico Classification Model to Assess Reactive Metabolite Formation in the Cysteine Trapping Assay and Investigation of Important Substructures” (Biomolecules, 2024).

Test: cysteine trapping assay ([35S]cysteine, HPLC with radiomatic detector) for reactive metabolites
Conditions: human liver microsome 2 mg/mL, L-[35S]-Cysteine, NADPH, 37 °C, 2 h

RI integrated area: 4464.4 count
SMILES: CC(C)c1c(C(=O)Nc2ccccc2)c(-c2ccccc2)c(-c2ccc(F)cc2)n1CC[C@@H](O)C[C@@H](O)CC(=O)O [Atorvastatin]
